According to US4117139A, “Medicated compound for treating allergic diseases” (priority 1973, dated 1978):
Structures can show the parent of a compound that is named as a salt.

Key:
[1] = test system: intoxication caused by histamine aerosol; test: Histamine aerosol intoxication in guinea pigs; type: in vivo; settings: same test conditions and doses, 1 hour after administration; control 55 (52-58) seconds; p of at least 0.05
[2] = Acute toxicity in mice; settings: mouse, in vivo

Structure (SMILES): CN(C)CCOC(c1ccccc1)c1ccccc1 [dimedrol, diphenhydramine hydrochloride, reference compound]
- latent period of intoxication [1]: 173 (264-82) seconds
- LD50 ([2]; iv): 39 mg/kg
- LD50 ([2]; po): 210 mg/kg
